Values of other authors in patent US12501864B2 (priority 2020, dated 2025).
At least one structure is not confirmed: it was looked up by name or label, or the drawing left a doubt.

System: Xylella fastidiosa
Settings: cited from earlier work

For `C/C=C1/[C@H](O[C@@H]2O[C@H](CO)[C@@H](O)[C@H](O)[C@H]2O)OC=C(C(=O)OC)[C@H]1CC(=O)OCCc1ccc(O)c(O)c1` [Oleuropein], the “activity against Xylella fastidiosa” value is given as “bacteriostatic activity against Xylella fastidiosa”.
